In patent US12351591B2, “KRas inhibitors” (ELI LILLY AND COMPANY, priority 2022, dated 2025):
Some results were stated once for a whole list of compounds, not compound by compound.

By UniProt entry, the sequences of proteins in these tests, tags left out. Residues count along the entry.
UniProt P01116, 1-188 isoform P01116-2 G12V: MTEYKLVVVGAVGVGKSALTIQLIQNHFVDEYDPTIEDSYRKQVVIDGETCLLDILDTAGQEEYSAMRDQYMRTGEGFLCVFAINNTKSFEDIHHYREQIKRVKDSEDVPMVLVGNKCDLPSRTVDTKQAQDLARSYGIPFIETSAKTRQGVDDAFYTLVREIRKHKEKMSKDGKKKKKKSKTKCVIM
UniProt P01116, 1-188 isoform P01116-2 G12C: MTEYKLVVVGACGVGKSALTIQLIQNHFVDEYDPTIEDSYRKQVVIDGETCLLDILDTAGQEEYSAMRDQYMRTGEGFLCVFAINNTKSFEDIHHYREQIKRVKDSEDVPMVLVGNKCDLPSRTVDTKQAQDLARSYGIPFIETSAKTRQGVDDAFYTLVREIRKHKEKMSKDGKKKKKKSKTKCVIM
UniProt P01116, 1-188 isoform P01116-2: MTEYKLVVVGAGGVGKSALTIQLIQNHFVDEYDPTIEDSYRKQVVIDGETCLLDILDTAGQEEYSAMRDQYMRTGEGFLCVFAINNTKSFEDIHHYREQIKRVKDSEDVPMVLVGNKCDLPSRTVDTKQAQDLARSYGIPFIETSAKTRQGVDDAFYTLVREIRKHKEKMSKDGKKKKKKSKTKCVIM
UniProt P01116, 1-188 isoform P01116-2 G12D: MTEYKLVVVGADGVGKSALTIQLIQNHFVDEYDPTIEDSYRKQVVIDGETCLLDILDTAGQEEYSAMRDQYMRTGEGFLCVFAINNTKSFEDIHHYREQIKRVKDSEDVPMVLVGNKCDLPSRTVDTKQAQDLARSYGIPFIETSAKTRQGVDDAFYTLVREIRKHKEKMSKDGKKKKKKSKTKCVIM

Key:
[1] = biological target: T1, KRAS G12V (Homo sapiens, UniProt P01116, G12V); assay: Cellular Phospho-ERK AlphaLISA, SW620 cells (KRAS G12V); assay type: cell-based; settings: 2 h, read-out: relative IC50, reduction of phosphorylated ERK-1/2 in cells expressing KRAS G12V
T1 construct: endogenous in cells; host or cells: SW620

[2] = biological target: HRAS (Homo sapiens, UniProt P01112); assay: Cellular Phospho-ERK AlphaLISA, MEF-HRAS cells (RAS-less MEFs expressing HRAS only); assay type: cell-based, mouse; settings: 2 h, read-out: relative IC50, phospho-ERK, MEF-HRAS
[3] = biological target: NRAS (Homo sapiens, UniProt P01111); assay: Cellular Phospho-ERK AlphaLISA, MEF-NRAS cells (RAS-less MEFs expressing NRAS only); assay type: cell-based, mouse; settings: 2 h, read-out: relative IC50, phospho-ERK, MEF-NRAS
[4] = biological target: T2, KRAS G12C (Homo sapiens, UniProt P01116, G12C); assay: Cellular Phospho-ERK AlphaLISA, NCI-1373 cells (KRAS G12C); assay type: cell-based; settings: 2 h, read-out: relative IC50, reduction of phosphorylated ERK-1/2 in cells expressing KRAS G12C
T2 construct: endogenous in cells; host or cells: NCI-1373

[5] = biological target: T3, KRAS WT (Homo sapiens, UniProt P01116); assay: Cellular Phospho-ERK AlphaLISA, MKN45 cells (WT KRAS amplification); assay type: cell-based; settings: cells expressing KRAS WT, 2 h; read-out: relative IC50, reduction of phosphorylated ERK-1/2 in cells expressing KRAS WT
T3 construct: or amplification of the KRAS gene; endogenous in cells; host or cells: MKN45

[6] = biological target: T4, KRas G12D (Homo sapiens, UniProt P01116, G12D); assay: PANC-1 Cellular Active RAS GTPase ELISA (KRas G12D Mutation); assay type: cell-based; settings: PANC-1 cells, 2 hours; read-out: relative IC50, inhibition of constitutive RAS GTPase activity (KRas G12D mutant)
T4 construct: host or cells: PANC-1

[7] = biological target: T4, KRas G12D; assay: Cellular Phospho-ERK AlphaLISA, HPAC cells (KRAS G12D); assay type: cell-based; settings: 2 h, read-out: relative IC50, reduction of phosphorylated ERK-1/2 in cells expressing KRAS G12D

Row | SMILES | IC50 [1] [nM] | IC50 [2] [nM] | IC50 [3] [nM] | IC50 [4] [nM] | IC50 [5] [nM] | IC50 [6] [nM] | IC50 [7] [nM]
1 | COCCOc1nc(OC[C@@]23CCCN2C[C@H](F)C3)nc2c(F)c(-c3ncc(F)c4sc(N)c(C#N)c34)c3c(c12)COC3 [Example 321, 2-Amino-7-fluoro-4-[5-fluoro-3-[[(2R,8S)-2-fluoro-1,2,3,5,6,7-hexahydropyrrolizin-8-yl]methoxy]-1-(2-methoxyethoxy)-7,9-dihydrofuro[3,4-f]quinazolin-6-yl]thieno[3,2-c]pyridine-3-carbonitrile] | < 500 | > 2000 | > 2000 | < 500 | – | – | –
2 | N#Cc1c(N)sc2c(F)ccc(-c3c4c(c5ccc(OCCN6CCOCC6)nc5c3Cl)COC4)c12 (single isomer, unassigned; isomer 1) [Example 30, 2-Amino-4-[5-chloro-7-(2-morpholinoethoxy)-1,3-dihydrofuro[3,4-f]quinolin-4-yl]-7-fluoro-benzothiophene-3-carbonitrile, Isomer 1] | < 500 | – | – | – | < 500 | < 100 | –
3 | C[C@@H](O)CN1CC2CCC(C1)N2c1nc(OC[C@@]23CCCN2C[C@H](F)C3)nc2c(F)c(-c3ccc(F)c4sc(N)c(C#N)c34)c3c(c12)COC3 [Example 162, 2-Amino-7-fluoro-4-[5-fluoro-3-[[(2R,8S)-2-fluoro-1,2,3,5,6,7-hexahydropyrrolizin-8-yl]methoxy]-1-[3-[(2R)-2-hydroxypropyl]-3,8-diazabicyclo[3.2.1]octan-8-yl]-7,9-dihydrofuro[3,4-f]quinazolin-6-yl]benzothiophene-3-carbonitrile] | – | > 2000 | > 2000 | < 500 | < 500 | < 100 | < 500
4 | N#Cc1c(N)sc2c(F)ccc(-c3cc4nc(OC[C@@]56CCCN5C[C@H](F)C6)nc(N5C6CCC5CNC6)c4c4c3COC4)c12 [Example 2, 2-Amino-4-[1-(3,8-diazabicyclo[3.2.1]octan-8-yl)-3-[[(2R,8S)-2-fluoro-1,2,3,5,6,7-hexahydropyrrolizin-8-yl]methoxy]-7,9-dihydrofuro[3,4-f]quinazolin-6-yl]-7-fluoro-benzothiophene-3-carbonitrile] | – | > 2000 | > 2000 | < 500 | < 500 | < 100 | < 500
5 | N#Cc1c(N)sc2c(F)ccc(-c3c4c(c5cnc(OC[C@@]67CCCN6C[C@H](F)C7)nc5c3Cl)COC4)c12 (single isomer, unassigned; isomer 1) [Example 209] | < 500 | – | – | – | < 500 | < 100 | –
6 | N#Cc1c(N)sc2ccc(F)c(-c3c4c(c5c(N6C7CCC6CN(CCCO)C7)nc(OC[C@@]67CCCN6C[C@H](F)C7)nc5c3F)COC4)c12 (single isomer, unassigned) [Example 107] | – | > 2000 | > 2000 | < 500 | < 500 | < 100 | < 500
7 | N#Cc1c(N)sc2cccc(-c3c4c(c5c(N6C7CCC6CN(CCCO)C7)nc(OC[C@@]67CCCN6C[C@H](F)C7)nc5c3F)COC4)c12 [Example 48, 2-Amino-4-[5-fluoro-3-[[(2R,8S)-2-fluoro-1,2,3,5,6,7-hexahydropyrrolizin-8-yl]methoxy]-1-[3-(3-hydroxypropyl)-3,8-diazabicyclo[3.2.1]octan-8-yl]-7,9-dihydrofuro[3,4-f]quinazolin-6-yl]benzothiophene-3-carbonitrile] | – | > 2000 | > 2000 | < 500 | < 500 | < 100 | < 500
8 | CN(C)c1nc(OC[C@@]23CCCN2C[C@H](F)C3)nc2c(F)c(-c3ncc(F)c4sc(N)c(C#N)c34)c3c(c12)COC3 [Example 315, 2-Amino-4-[1-(dimethylamino)-5-fluoro-3-[[(2R,8S)-2-fluoro-1,2,3,5,6,7-hexahydropyrrolizin-8-yl]methoxy]-7,9-dihydrofuro[3,4-f]quinazolin-6-yl]-7-fluoro-thieno[3,2-c]pyridine-3-carbonitrile] | < 500 | > 2000 | > 2000 | < 500 | – | – | –
9 | N#Cc1c(N)sc2c(F)ccc(-c3c4c(c5c(N6C7CCC6CN(C[C@H]6CCO6)C7)nc(OC[C@@]67CCCN6C[C@H](F)C7)nc5c3F)COC4)c12 [Example 101, 2-Amino-7-fluoro-4-[5-fluoro-3-[[(2R,8S)-2-fluoro-1,2,3,5,6,7-hexahydropyrrolizin-8-yl]methoxy]-1-[3-[[(2R)-oxetan-2-yl]methyl]-3,8-diazabicyclo[3.2.1]octan-8-yl]-7,9-dihydrofuro[3,4-f]quinazolin-6-yl]benzothiophene-3-carbonitrile] | – | > 2000 | > 2000 | < 500 | < 500 | < 100 | < 500
10 | CN1C[C@H](F)C[C@H]1COc1ccc2c3c(c(-c4ccc(F)c5sc(N)c(C#N)c45)c(Cl)c2n1)COC3 (single isomer, unassigned; isomer 1) [Example 38] | < 500 | – | – | – | < 500 | < 100 | –
11 | N#Cc1c(N)sc2c(F)cnc(-c3c4c(c5c(N6C7CCC6CN(C[C@@H]6CCO6)C7)nc(OC[C@@]67CCCN6C[C@H](F)C7)nc5c3F)COC4)c12 [Example 129, 2-Amino-7-fluoro-4-[5-fluoro-3-[[(2R,8S)-2-fluoro-1,2,3,5,6,7-hexahydropyrrolizin-8-yl]methoxy]-1-[3-[[(2S)-oxetan-2-yl]methyl]-3,8-diazabicyclo[3.2.1]octan-8-yl]-7,9-dihydrofuro[3,4-f]quinazolin-6-yl]thieno[3,2-c]pyridine-3-carbonitrile] | – | > 2000 | > 2000 | < 500 | < 500 | < 100 | < 500
12 | CN1CCC(F)(COc2ncc3c4c(c(-c5ncc(F)c6sc(N)c(C#N)c56)c(F)c3n2)COC4)C1 (single isomer, unassigned) [Example 346, 2-Amino-7-fluoro-4-[5-fluoro-3-[(3-fluoro-1-methyl-pyrrolidin-3-yl)methoxy]-7,9-dihydrofuro[3,4-f]quinazolin-6-yl]thieno[3,2-c]pyridine-3-carbonitrile] | < 500 | > 2000 | > 2000 | < 500 | – | – | < 500
13 | CN1CC2CC(C1)N2c1nc(OC[C@@]23CCCN2C[C@H](F)C3)nc2c(F)c(-c3c(F)ccc4oc(N)c(C#N)c34)c3c(c12)COC3 (single isomer, unassigned) [Example 116] | – | > 2000 | > 2000 | < 500 | < 500 | < 100 | < 500
14 | COCCCN1CC2CCC(C1)N2c1nc(OC[C@@]23CCCN2C[C@H](F)C3)nc2c(F)c(-c3c(F)ccc4sc(N)c(C#N)c34)c3c(c12)COC3 (single isomer, unassigned) [Example 113] | – | > 2000 | > 2000 | < 500 | < 500 | < 100 | < 500
15 | CC(O)CCN1CC2CC(C1)N2c1nc(OC[C@@]23CCCN2C[C@H](F)C3)nc2c(F)c(-c3c(F)ccc4sc(N)c(C#N)c34)c3c(c12)COC3 (single isomer, unassigned) [Example 96] | – | > 2000 | > 2000 | < 500 | < 500 | < 100 | < 500
16 | CC(C)(O)CN1CC2CCC(C1)N2c1nc(OC[C@@]23CCCN2C[C@H](F)C3)nc2c(F)c(-c3cccc4sc(N)c(C#N)c34)c3c(c12)COC3 [Example 159, 2-Amino-4-[5-fluoro-3-[[(2R,8S)-2-fluoro-1,2,3,5,6,7-hexahydropyrrolizin-8-yl]methoxy]-1-[3-(2-hydroxy-2-methyl-propyl)-3,8-diazabicyclo[3.2.1]octan-8-yl]-7,9-dihydrofuro[3,4-f]quinazolin-6-yl]benzothiophene-3-carbonitrile] | – | > 2000 | > 2000 | < 500 | < 500 | < 100 | < 500
17 | C[C@@H](O)CN1CC2CCC(C1)N2c1nc(OC[C@@]23CCCN2C[C@H](F)C3)nc2c(F)c(-c3c(F)ccc4oc(N)c(C#N)c34)c3c(c12)COC3 (single isomer, unassigned) [Example 169] | – | > 2000 | > 2000 | < 500 | < 500 | < 100 | < 500
18 | CC(C)(O)CN1CC2CCC(C1)N2c1nc(OC[C@@]23CCCN2C[C@H](F)C3)nc2c(F)c(-c3ncc(F)c4sc(N)c(C#N)c34)c3c(c12)COC3 [Example 244, 2-Amino-7-fluoro-4-[5-fluoro-3-[[(2R,8S)-2-fluoro-1,2,3,5,6,7-hexahydropyrrolizin-8-yl]methoxy]-1-[3-(2-hydroxy-2-methyl-propyl)-3,8-diazabicyclo[3.2.1]octan-8-yl]-7,9-dihydrofuro[3,4-f]quinazolin-6-yl]thieno[3,2-c]pyridine-3-carbonitrile] | – | > 2000 | > 2000 | < 500 | < 500 | < 100 | < 500
